{"source": "patent US5756537A", "about": "(Parkash S. Gill, M.D., Inc., priority 1996, dated 1998)", "origin": "cited, not measured here", "test_system": "ovarian and breast cancer", "details": "3 hour infusion, ovarian cancer patients; Huizing, et al.; cited from earlier work", "note": "The name of at least one read-out is uncertain."}
{"smiles": "CC(=O)O[C@H]1C(=O)[C@@]2(C)[C@H]([C@H](OC(=O)c3ccccc3)[C@]3(O)C[C@H](OC(=O)[C@H](O)[C@@H](NC(=O)c4ccccc4)c4ccccc4)C(C)=C1C3(C)C)[C@]1(OC(C)=O)CO[C@@H]1C[C@@H]2O", "note": "[paclitaxel]", "values": [{"measurement": "AUC(0→.infin.) that led to increased side effects", "result": "8 to 12", "unit": "µM/h"}]}
